# In PubChem BioAssay AID602313 (National Center for Advancing Translational Sciences (NCATS), 2012):
# The whole screen tested about 390,000 compounds, of which about 760 (0.19%) were called active. Inconclusive means that the source gave no clear call. Such entries were picked first, then a sample of the others. Calls come from the whole dose curve; as a rule, active = well fitted inhibition curve with a large enough effect; inconclusive = small, poorly fitted or top-dose-only effect; inactive = flat fitted curve, though single readings scatter. A potency beside an inconclusive call is a rough fit, not a confirmed value.
# Assay: qHTS for Inhibitors of Vif-A3F Interactions: qHTS; note: nearly all actives have a fitted effect of over 65% in size
# Settings: HeLa A3F-eYFP + Vif (tagged APOBEC3F with the HIV-1 protein that degrades it), YFP fluorescence increase; series mostly up to 46.1 µM
# Procedure, shortened: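 Fluorescence increase (Ex 488/Em 500-530) after overnight compound treatment at 37 deg C flags inhibition of Vif-driven A3F-eYFP loss in stable HeLa A3F-eYFP/Vif cells seeded overnight beforehand.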
# Potency is the fitted concentration of half-maximal effect.
row,Structure (SMILES),Potency
1,CC(=O)N1CCN(c2ccccc2NC(=O)COc2cc(C)cc(C)c2)CC1,"inconclusive: 6.31 µM [inhibitor, partial curve, poor fit]"
2,Oc1cc(-c2ccc(N3CCCCC3)nc2)cc2cccnc12,"inconclusive: 22.4 µM [inhibitor, single point]"
3,CC(=O)NCCn1c(SCC(=O)NC2CCCCC2)nc2ccccc2c1=O,"inconclusive: 35.5 µM [inhibitor, single point]"
4,O=c1c2c3c(sc2ncn1/N=C/c1ccc([N+](=O)[O-])o1)CCCC3,"inconclusive: 3.55 µM [inhibitor, single point]"
5,O=C(O)CN1C(=O)/C(=C/c2ccc(SCc3ccccc3)o2)SC1=S,"inconclusive: 28.2 µM [inhibitor, single point]"
6,COc1ccc(-c2ccc(-c3noc(-c4ccccc4C)n3)c(OC)n2)cc1,inactive
7,COc1cc(/C=C/C(=O)OCC(=O)Nc2nnc(-c3ccccc3)o2)cc(OC)c1OC,"inconclusive: 35.5 µM [inhibitor, single point]"
8,Cc1ccc(N(C(=O)Cc2c[nH]c3ccccc23)C(C(=O)NC2CCCCC2)c2ccco2)cc1 (stereo not drawn),inactive
9,CCn1c2ccccc2c2nc3cc(OC)c(OC)cc3nc21,"inconclusive: 35.5 µM [inhibitor, single point]"
10,C[C@H](CO)N1C[C@H](C)[C@H](CN(C)Cc2ccc(-c3ccccc3)cc2)Oc2ccc(NS(=O)(=O)c3ccccc3)cc2CC1=O,"inconclusive: 35.5 µM [inhibitor, single point]"
11,O=C1CC(N(CCc2ccccc2)C(=S)Nc2ccccc2)C(=O)N1c1ccccc1 (stereo not drawn),"inconclusive: 11.2 µM [inhibitor, partial curve, poor fit]"
12,CCN(CCO)c1ccc(NC(=S)Nc2cccc(S(=O)(=O)N(C)C)c2)cc1,inactive
13,Cc1c(C)n(CCc2ccccc2)c2ncnc(NN)c12,"inconclusive: 17.8 µM [inhibitor, single point]"
14,CC(=O)Nc1ccc(/C=C2\CCc3ccccc3C2=O)cc1,"inconclusive: 15.8 µM [inhibitor, single point]"
15,Nc1cc2nn(-c3ccccc3)nc2cc1Cl,inactive
16,CCS(=O)(=O)Nc1cccc(C2=NN(S(=O)(=O)CC)C(c3cccs3)C2)c1 (stereo not drawn),"inconclusive: 2.82 µM [inhibitor, single point]"
17,O=C(Nc1ccccc1)OCCCCOC(=O)Nc1ccccc1,"inconclusive: 6.31 µM [inhibitor, single point]"
18,C/C(=N\NC(=S)NCc1ccccc1)c1ccc2c(c1)OCCO2,inactive
19,Cc1cc(C)cc(NC(=O)Cn2c(=O)oc3cc(S(=O)(=O)N4CCC(C)CC4)ccc32)c1,"inconclusive: 22.4 µM [inhibitor, single point]"
20,CCN(CC)c1nc(C=Cc2ccc(N(C)C)cc2)c2nccnc2n1,"inconclusive: 1.26 µM [inhibitor, full curve, poor fit]"
21,O=C(c1ccco1)N1CCCN(Cc2nc(-c3ccc4c(c3)OCO4)no2)CC1,"inconclusive: 3.16 µM [inhibitor, single point]"
22,O=S(=O)(Cc1ccccc1Cl)N1CCCC1,"inconclusive: 2.82 µM [inhibitor, partial curve, poor fit]"
23,O=C1CNC(=O)/C1=C\c1ccc(O)cc1,inactive

row,Structure (SMILES),Potency
1,NC(=O)C1CCN(C(=O)c2cn(-c3ccccc3)nc2-c2cccnc2)CC1,"inconclusive: 3.55 µM [inhibitor, single point]"
2,Cc1ccc2[nH]cc(/C=C/c3cc[n+](C)cc3)c2c1,"inconclusive: 0.562 µM [inhibitor, full curve, poor fit]"
3,COc1ccc(N(C(=O)c2ccccc2C)S(=O)(=O)c2cccs2)cc1,"inconclusive: 28.2 µM [inhibitor, partial curve, poor fit]"
4,CCN=C1SC(CC(=O)NC2CCCCC2)C(=O)N1CC (stereo not drawn),inactive
5,COc1ccc(OCCCC(=O)OCC(=O)Nc2ncc(Cl)cc2Cl)cc1,"inconclusive: 35.5 µM [inhibitor, single point]"
6,O=C(/C=C/c1ccco1)Nc1nc(-c2ccccn2)cs1,inactive
7,CCOc1ccc(OCCCC(=O)Nc2cc(S(=O)(=O)N3CCOCC3)ccc2N2CCOCC2)cc1,inactive
8,CCc1ccc2oc(-c3ccc(NC(=O)c4cc5ccccc5o4)cc3)nc2c1,"inconclusive: 3.16 µM [inhibitor, single point]"
9,Cn1cc([N+](=O)[O-])c(C(=O)NNC(=O)c2ccc([N+](=O)[O-])cc2Cl)n1,"inconclusive: 6.31 µM [inhibitor, single point]"
10,COC(=O)c1c(NC(=O)/C=C/c2ccco2)sc2c1CCC2,"inconclusive: 11.2 µM [inhibitor, partial curve, poor fit]"
11,O=C(NCc1cccs1)c1ccc(S(=O)(=O)N2CCOCC2)cc1,"inconclusive: 2.82 µM [inhibitor, single point]"
12,CC1CCN(S(=O)(=O)c2ccc3nc(NCc4ccccc4)ccc3c2)CC1,inactive
13,COc1cccc(-c2nc(-c3ccccc3)c(-c3ccccc3)[nH]2)c1OCC(=O)O,inactive
14,CC(C)CNC(=O)COC(=O)c1c2c(nc3ccccc13)/C(=C/c1cccs1)CC2,"inconclusive: 31.6 µM [inhibitor, single point]"
15,COc1ccc(C2CN=NC23CCc2ccccc2C3=O)cc1 (stereo not drawn),inactive
16,COc1ccc(O)c(C(=O)c2coc(=N)c(C(=O)Nc3ccc(SC(F)F)cc3)c2)c1,active: 12.6 µM
17,Cc1c(C)n(O)c2ccc3nonc3c12,inactive
18,CCn1c(CNC(=O)c2cc(OC)c(OC)c(OC)c2)cc2cc(C)ccc21,"inconclusive: 3.55 µM [inhibitor, full curve]"
19,Cc1ccc(-n2c(SCc3ccc(C(=O)O)cc3)nnc2-c2ccncc2)cc1,"inconclusive: 6.31 µM [inhibitor, single point]"
20,O=C(OCC(=O)N1CCN(C(=O)c2ccco2)CC1)c1ccccc1C(=O)c1ccccc1,inactive
21,COc1ccc(C(C(=O)NC(C)(C)C)N(C[C@H]2CC[C@@H]([C@@H]3CC[C@H](CO)O3)O2)C(=O)c2ccccc2)cc1 (stereo partly drawn),inactive
22,C=CC(C)N1C(=O)S/C(=C\c2ccc(N3CCOCC3)cc2C)C1=O (stereo not drawn),"inconclusive: 35.5 µM [inhibitor, single point]"
23,Cc1cccc(NC(=O)c2sc3nc(-c4cc5ccc(O)cc5oc4=O)[nH]c(=O)c3c2C)c1,"inconclusive: 10 µM [inhibitor, partial curve, poor fit]"

row,Structure (SMILES),Potency
1,Cn1c2ccccc2c2cnn(CC(=O)Nc3ccccc3F)c(=O)c21,inactive
2,CC(=O)N1CCN(C(=O)c2ccc(-n3c(C)ccc3C)cc2)CC1,"inconclusive: 17.8 µM [inhibitor, single point]"
3,COc1cc(/C=C2\SC(=Nc3cccnc3)NC2=O)cc(OC)c1OC,active: 25.1 µM
4,O=C(Nc1ccccn1)c1ccc(Cl)c(S(=O)(=O)N2CCCCCC2)c1,"inconclusive: 3.55 µM [inhibitor, partial curve, poor fit]"
5,CCC(Sc1nc2ncccc2o1)C(=O)Nc1ccc(OC)c(OC)c1 (stereo not drawn),inactive
6,COC(CNC(=O)c1ccc2nc(-c3ccccc3)c(-c3ccccc3)nc2c1)OC,inactive
7,Cc1nn(Cc2ccc(Cl)cc2)c(C)c1NC(=O)c1cc(-c2ccc3c(c2)OCO3)on1,"inconclusive: 20 µM [inhibitor, single point]"
8,Cc1csc(NC(=S)NC(=O)c2ccccc2)n1,"inconclusive: 3.98 µM [inhibitor, single point]"
9,O=C(COc1cc(F)ccc1[N+](=O)[O-])Nc1ccc(N2CCCCC2)cc1,"inconclusive: 6.31 µM [inhibitor, single point]"
10,Cc1ccc(C(=O)NC(=S)Nc2ccc(Oc3ccc(Cl)cc3)cc2)cc1,inactive
11,On1onc2c3cc(-c4ccccc4)nc3ccc21,"inconclusive: 7.94 µM [inhibitor, partial curve, poor fit]"
12,COc1ccc(CC(=O)Nc2cc(C)on2)cc1OC,"inconclusive: 3.16 µM [inhibitor, partial curve, poor fit]"
13,CC(C(=O)Nc1ccc2c(c1)OCO2)N(C)CC(=O)Nc1ccc(Cl)cc1 (stereo not drawn),"inconclusive: 6.31 µM [inhibitor, single point]"
14,O=C(NC1CCCCC1)C(c1ccco1)N(C(=O)c1csnn1)c1cccc(F)c1 (stereo not drawn),"inconclusive: 3.16 µM [inhibitor, single point]"
15,O=[N+]([O-])c1cc(S(=O)(=O)Nc2ccccc2)ccc1Nc1ccccc1,inactive
16,O=[N+]([O-])c1ccc(N/N=C/c2ccccc2)c(F)c1,"inconclusive: 35.5 µM [inhibitor, single point]"
17,Nc1ccc2nc(N)sc2c1,"inconclusive: 22.4 µM [inhibitor, single point]"
18,O=c1cc(Cl)[nH]c(=O)n1CCNc1ncc(C(F)(F)F)cc1Cl,"inconclusive: 31.6 µM [inhibitor, single point]"
19,Cc1cc(=O)[nH]c(-n2[nH]c(C)cc2=O)n1,"inconclusive: 5.62 µM [inhibitor, single point]"
20,COc1cccc(N(C(=O)CNC(=O)c2ccco2)C(C(=O)NC2CCCC2)c2ccco2)c1 (stereo not drawn),"inconclusive: 35.5 µM [inhibitor, single point]"
21,CCOC(=O)c1c(C)[nH]c(C(=O)N/N=C\c2ccccc2O)c1C,"inconclusive: 35.5 µM [inhibitor, single point]"
22,COc1ccc(/C=N/N2C(=O)CSC2=S)cc1Br,"inconclusive: 35.5 µM [inhibitor, single point]"

# By substructure, the compounds so far with a COOH group.
row,Structure (SMILES),Potency
5,O=C(O)CN1C(=O)/C(=C/c2ccc(SCc3ccccc3)o2)SC1=S,"inconclusive: 28.2 µM [inhibitor, single point]"
13,COc1cccc(-c2nc(-c3ccccc3)c(-c3ccccc3)[nH]2)c1OCC(=O)O,inactive
19,Cc1ccc(-n2c(SCc3ccc(C(=O)O)cc3)nnc2-c2ccncc2)cc1,"inconclusive: 6.31 µM [inhibitor, single point]"
